Measured values reported in paper PMC7153906.
Results are given in words; binding and its absence hold for the method and conditions named. Binding seen in cells or lysates may run through a third protein. Some binding calls cover weakened binding; strength is not graded here. Where a sequence is shown, tags or fusion partners need not be part of it.

Target: T1, TMEM98-V5 (mouse) (UniProt Q91X86)
T1 sequence: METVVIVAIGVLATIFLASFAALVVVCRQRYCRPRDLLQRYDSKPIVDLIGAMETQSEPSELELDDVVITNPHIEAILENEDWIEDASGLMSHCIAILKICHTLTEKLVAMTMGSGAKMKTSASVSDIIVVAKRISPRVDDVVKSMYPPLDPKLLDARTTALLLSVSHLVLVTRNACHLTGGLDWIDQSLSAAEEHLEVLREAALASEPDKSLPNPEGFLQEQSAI
Assay: co-IP; HEK293T cells transiently co-transfected (5 μg of each plasmid), lysed after 24 hours in Cell Lysis Buffer; anti-V5 agarose affinity gel at 4°C overnight; Western blot with anti-MYC, anti-FLAG and anti-V5

binding: binds
B1: MYC-MYRF-FLAG (intact, full-length) (protein, UniProt Q3UR85 1-1138)
chain: MEVVDETEALQRFFEGHDISGALEPSNIDTSILEEYIGKEDASDLCFPEISAPASTASFPHGPPAIPGSSGLHHLSPPGSGPSPGRHGPLPPPTYGTPLNCNNNNGMGTAPKPFLGGSGPPIKAEPKAPYAPGTLPDSPPDSGSEAYSPQQVNDPHLLRTITPETLCHVGVSSRLEHPPPPPAHLPGPPPPPPPPPHYPVLQRDLYMKAEPPVPPYAAMGPGLVPPELHHTQQTQVLHQLLQQHGAELPPHPSKKRKHSESPPNTLNAQMLNGMIKQEPGTVTALPPHPARAPSPPWPPQGPLSPGTGSLPLSIARAQTPPWHPPGAPSPGLLQDSDSLSGSYLDPNYQSIKWQPHQQNKWATLYDANYKELPMLTYRVDADKGFNFSVGDDAFVCQKKNHFQVTVYIGMLGEPKYVKTPEGLKPLDCFYLKLHGVKLEALNQSINIEQSQSDRSKRPFNPVTVNLPPEQVTKVTVGRLHFSETTANNMRKKGKPNPDQRYFMLVVALQAHAQNQNYTLAAQISERIIVRASNPGQFESDSDVLWQRAQLPDTVFHHGRVGINTDRPDEALVVHGNVKVMGSLMHPSDLRAKEHVQEVDTTEQLKRISRMRLVHYRYKPEFAASAGIEATAPETGVIAQEVKEILPEAVKDTGDVVFANGKTIENFLVVNKERIFMENVGAVKELCKLTDNLETRIDELERWSHKLAKLRRLDSLKSTGSSGAFSHAGSQFSRAGSVPHKKRPPKLANKSSPAVPDQACISQRFLQGTIIALVVVMAFSVVSMSTLYVLSLRSEEDLVDADGSLAVSTSCLLALLRPQDPGGSEAMCPWSSQSFGTTQLRQSSMTTGLPGTQPSLLLVTKSASGPALRALDLCSSQPCPIVCCSPPVSSPATDPALGPTLTPTPSPSSNPKHSGPGQMAPLPVTNIRAKSWGISANGISYSKHSKSLEPLASPVVPFPGGQSKTKNSPSFNLQSRARRGAPQPSPSPAQFTQTQGQLDPAPSLTSIQLLENSMPITSQYCVPEGACRLGNFTYHIPVSSSTPLHLSLTLQMNSSTPVSVVLCSLTSEEEPCEEGGFLQRFHPHQDTQGTSHQWPVTILSFREFTYHFRVTLLGQANCSSEAIVQPATDYYFHFYRLCD
